Source: paper PMC9124216
Results are given in words; binding and its absence hold for the method and conditions named. In cells and extracts the contact can be indirect. Some entries that bind do so weakly or less than the wild type.

Chains of the proteins cited; added tags and fusions are not shown. Residues count along the entry.
UniProt Q13444, residues 207-863: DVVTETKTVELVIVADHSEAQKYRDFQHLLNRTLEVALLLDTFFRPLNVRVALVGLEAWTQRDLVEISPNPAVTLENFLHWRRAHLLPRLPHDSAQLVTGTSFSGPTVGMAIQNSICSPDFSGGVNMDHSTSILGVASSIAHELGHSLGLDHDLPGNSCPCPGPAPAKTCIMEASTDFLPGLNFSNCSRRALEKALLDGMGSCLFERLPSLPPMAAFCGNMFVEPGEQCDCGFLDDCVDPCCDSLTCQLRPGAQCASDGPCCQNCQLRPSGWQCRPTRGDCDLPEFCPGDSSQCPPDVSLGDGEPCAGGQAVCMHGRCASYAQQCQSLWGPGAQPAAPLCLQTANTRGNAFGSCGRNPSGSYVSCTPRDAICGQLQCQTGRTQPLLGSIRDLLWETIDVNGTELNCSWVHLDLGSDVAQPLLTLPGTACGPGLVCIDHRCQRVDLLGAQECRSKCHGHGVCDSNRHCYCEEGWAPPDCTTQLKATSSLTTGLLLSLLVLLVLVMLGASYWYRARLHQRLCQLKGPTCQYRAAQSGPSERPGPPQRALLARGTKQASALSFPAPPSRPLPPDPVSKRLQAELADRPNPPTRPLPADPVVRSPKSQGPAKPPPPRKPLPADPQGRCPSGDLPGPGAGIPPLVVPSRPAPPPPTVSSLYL

Target: Disintegrin-metalloproteinase 15 (ADAM15) (human (endogenous in A549 and H1299)) (UniProt Q13444)
Test: co-IP; endogenous proteins in lysates of parental A549 and H1299 cells; 1 µg IgG or specific monoclonal antibody, 4 °C 24 h, protein G beads, washed three times with RIPA buffer, western blot; also control and CD151-knockdown H1299 cells (Fig. 8E)

B1: Tetraspanin CD151 (protein, UniProt P48509 1-253)
chain: MGEFNEKKTTCGTVCLKYLLFTYNCCFWLAGLAVMAVGIWTLALKSDYISLLASGTYLATAYILVVAGTVVMVTGVLGCCATFKERRNLLRLYFILLLIIFLLEIIAGILAYAYYQQLNTELKENLKDTMTKRYHQPGHEAVTSAVDQLQQEFHCCGSNNSQDWRDSEWIRSQEAGGRVVPDSCCKTVVALCGQRDHASNIYKVEGGCITKLETFIQEHLRVIGAVGIGIACVQVFGMIFTCCLYRSLKLEHY
binding: binds
